In PMC7819943, “Rice protein-binding microarrays: a tool to detect cis-acting elements near promoter regions in rice”:
This is one part of the list.

Biological target: T1, OsSMF1 (Oryza sativa, UniProt Q6ZLB0 1-436)
T1 sequence: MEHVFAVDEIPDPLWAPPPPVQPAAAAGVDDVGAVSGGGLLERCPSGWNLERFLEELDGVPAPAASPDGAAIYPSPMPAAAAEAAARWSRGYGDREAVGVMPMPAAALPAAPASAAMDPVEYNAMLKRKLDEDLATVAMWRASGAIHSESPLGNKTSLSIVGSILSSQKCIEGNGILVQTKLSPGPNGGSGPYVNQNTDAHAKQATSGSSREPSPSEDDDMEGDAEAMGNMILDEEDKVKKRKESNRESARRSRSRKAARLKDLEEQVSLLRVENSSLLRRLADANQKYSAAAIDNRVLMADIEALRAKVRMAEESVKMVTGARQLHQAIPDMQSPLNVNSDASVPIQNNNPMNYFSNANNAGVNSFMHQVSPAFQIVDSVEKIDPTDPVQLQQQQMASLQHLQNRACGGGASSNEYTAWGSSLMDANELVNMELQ
Experiment: protein-binding microarray (RPBM); PBS, 2% BSA, 51.3 ng/ul salmon testes DNA, 50 uM zinc acetate, 200 nM TF, 25 C, 1 h; high values mean tight binding
Details: protein: recombinant; tags: N-terminal polyhistidine and DsRed monomer fusion (pET32a); chain copies: 2; label: CyDye5-dUTP incorporated in the synthesized complementary strand; 3' TTTTT single-stranded linker to array surface; dsDNA, one strand shown
How it was run: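 Binding signal is defined as the fluorescence intensity of each feature in arbitrary units, read on an Axon 4000B scanner. Transcription factors with N-terminal polyhistidine and DsRed fusions came from E. coli BL21-CodonPlus and were purified on Ni–NTA. They were incubated at 200 nM for 1 h at 25 °C on a custom Agilent array that had been made double-stranded with Cy5-dUTP, with 50 µM zinc acetate present, and the array was washed.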

Row | Sequence | binding signal
1 | ATTGCTGCAAATAAAGTGGGGAAATGTTAATCAATGAATGCGGAGTCACCTAGTGCAG | 31700 fluorescence intensity (a.u.)
2 | TGCGAGTGTGCGGCAATGCAAGTATGCAACACGCGCTCGCCGGAGTCACCTAGTGCAG | 26100 fluorescence intensity (a.u.)
3 | GGGGAGAAGTAGGAGGAGGTACGTATTGCCTATAGGCGGACGGAGTCACCTAGTGCAG | 3500 fluorescence intensity (a.u.)
4 | GAACACACCCGAATTCGTCGTCATCCTCGACGACTTCGACCGGAGTCACCTAGTGCAG | 4330 fluorescence intensity (a.u.)
5 | GAGCGAGGCGAGGGTGGGGAGGCGGAGGAGGATGTCCAGGCGGAGTCACCTAGTGCAG | 4580 fluorescence intensity (a.u.)
6 | TAACCCCTGCTGCGTGAGACGTGTCAATAAAGGTCAGAACCGGAGTCACCTAGTGCAG | 3600 fluorescence intensity (a.u.)
7 | AGTGAAACGGTGTCAATTACTGCCTTGTCACTTACTGATGCGGAGTCACCTAGTGCAG | 6800 fluorescence intensity (a.u.)
8 | GTTGTTTGTAATTTGGTATTGTAACTCCTCGCGTGGCGTGCGGAGTCACCTAGTGCAG | 35000 fluorescence intensity (a.u.)
9 | GTGTAGTTGGAGCGCGCGGTGGAAGATGAACAAGCTCAGCCGGAGTCACCTAGTGCAG | 41200 fluorescence intensity (a.u.)
10 | CGTTTGTTCCTCTCACCATCGAAAACATAATAGAATACACCGGAGTCACCTAGTGCAG | 14100 fluorescence intensity (a.u.)
11 | AAGGCGATTAGATTAGCGAGCACCGCACACCCGAACGCCACGGAGTCACCTAGTGCAG | 3340 fluorescence intensity (a.u.)
12 | TAATCATATCCTACTAATCACCAGTCACCACCATGAACTTCGGAGTCACCTAGTGCAG | 4820 fluorescence intensity (a.u.)
13 | TGATAACAGACACGTATATATCAGCCTAATTTTACGGAGACGGAGTCACCTAGTGCAG | 4020 fluorescence intensity (a.u.)
14 | TCTCTTTTGTGCTGCTGTCGAACGCAGCTACGTGTCAGTGCGGAGTCACCTAGTGCAG | 8710 fluorescence intensity (a.u.)
15 | CAGCTCGGACCCGTCGTGACGCGGTGACGCCGTCTCCGCCCGGAGTCACCTAGTGCAG | 7440 fluorescence intensity (a.u.)
16 | GCAAGTATCCAACTCATCTCTTTCCTTATCTCAGTCAATCCGGAGTCACCTAGTGCAG | 4300 fluorescence intensity (a.u.)
17 | TTGCTATTGTCCTGCTTCTCTTCCACCTCACCGTTGCTATCGGAGTCACCTAGTGCAG | 5080 fluorescence intensity (a.u.)
18 | AGCTTGGTGCGTCATGGTCCCACTGTTCATTACTTTCCTTCGGAGTCACCTAGTGCAG | 8120 fluorescence intensity (a.u.)
19 | TCCCTCCAGTGACGACACAACTGAATTCGGTGCCTTCCTTCGGAGTCACCTAGTGCAG | 3440 fluorescence intensity (a.u.)
20 | GTCCGGTTGAACGAGATCTATTGACGCTTGACTTGTCTCACGGAGTCACCTAGTGCAG | 3210 fluorescence intensity (a.u.)
21 | AATCGCTCGCACAGCCGCATCTTCCGCCGCCACGGCTTCTCGGAGTCACCTAGTGCAG | 3800 fluorescence intensity (a.u.)

Row | Sequence | binding signal
22 | CGCAAAACCCTACCTCTCCTCCACGCGGCGGCCGTCGGCGCGGAGTCACCTAGTGCAG | 4080 fluorescence intensity (a.u.)
23 | CTTTCCAGCACAATTTTGCTTTCCAGTTCCGTCCGAATGGCGGAGTCACCTAGTGCAG | 6830 fluorescence intensity (a.u.)
24 | CTCTCTCTCTCAAGGAAACTCATTGCATCCGCACACGTTCCGGAGTCACCTAGTGCAG | 3310 fluorescence intensity (a.u.)
25 | TCAATCTGGAAGAGTTCCCTTTTATGTGACATGCTCAAACCGGAGTCACCTAGTGCAG | 4240 fluorescence intensity (a.u.)
26 | CATCCAAAATATATAAGGGCGGGAGCGAGGCTATGAGAGGCGGAGTCACCTAGTGCAG | 3150 fluorescence intensity (a.u.)
27 | GAATAGTAATAGCGTTTTATTAATTTGCCACATTTGCAGTCGGAGTCACCTAGTGCAG | 3380 fluorescence intensity (a.u.)
28 | ATACAATTGCACACACTCATTTATATACAAGCACATCCTCCGGAGTCACCTAGTGCAG | 3360 fluorescence intensity (a.u.)
29 | TCCACATGATGCCCTCGCCAAGTCACCATGATATCATCATCGGAGTCACCTAGTGCAG | 11500 fluorescence intensity (a.u.)
30 | TAATTCTCCTACTGTAACAAACTTGTCTTCAATTCCACGTCGGAGTCACCTAGTGCAG | 4020 fluorescence intensity (a.u.)
31 | ATGGAGGATGTCTGTCTCATCCATGGCGTGTAGCTAGCTACGGAGTCACCTAGTGCAG | 3470 fluorescence intensity (a.u.)
32 | ATTAATGAACTAAAATGCGTCAAATATATAACATTGATATCGGAGTCACCTAGTGCAG | 23100 fluorescence intensity (a.u.)
33 | ACAAGCCCATCGTGGTAGATATGCTTTTCTCCCCAACCTCCGGAGTCACCTAGTGCAG | 3220 fluorescence intensity (a.u.)
34 | AAACGCCAACTGCAAGAACACCCAACACCAAACAAAGACCCGGAGTCACCTAGTGCAG | 3220 fluorescence intensity (a.u.)
35 | CCGTCTTTTCTTTCTTCACGCCAGCGTCGCCGTGGTCAAGCGGAGTCACCTAGTGCAG | 3650 fluorescence intensity (a.u.)
36 | ACCACCCGTGGGCCCACCTCGCCAGTCCAAACCAACGGCGCGGAGTCACCTAGTGCAG | 3430 fluorescence intensity (a.u.)
37 | ACGGTGCCAGGCAGACGTGGCTGCGCGATGGGGAGGCGGCCGGAGTCACCTAGTGCAG | 4380 fluorescence intensity (a.u.)
38 | GCCAGCATGGCTGGCGCCCTCCTCCTGCCACGTCGGTTCGCGGAGTCACCTAGTGCAG | 13700 fluorescence intensity (a.u.)
39 | CCTTGCTCTAAAAGATGAGCAAACGTAGCATGACGACAGCCGGAGTCACCTAGTGCAG | 3680 fluorescence intensity (a.u.)
40 | CCACGAACAGCTACACGTCTCCTTCTCCTTCTTCGATTTCCGGAGTCACCTAGTGCAG | 37400 fluorescence intensity (a.u.)
41 | TGACACACCCCTACAAGTTTAAATACTGCACGTGCACTTTCGGAGTCACCTAGTGCAG | 36300 fluorescence intensity (a.u.)
42 | CATGAGTCCCACATTGACTCAGCTTTGACATGTTAGCTAACGGAGTCACCTAGTGCAG | 6460 fluorescence intensity (a.u.)

Part of the list above, as a markdown table.

| Row | Sequence | binding signal |
| --- | --- | --- |
| 25 | TCAATCTGGAAGAGTTCCCTTTTATGTGACATGCTCAAACCGGAGTCACCTAGTGCAG | 4240 fluorescence intensity (a.u.) |
| 32 | ATTAATGAACTAAAATGCGTCAAATATATAACATTGATATCGGAGTCACCTAGTGCAG | 23100 fluorescence intensity (a.u.) |
